No constants are given. Whether binding was seen depends on the method and setting. Binding can be weak; no strength is given. For some assays here: Sequences can lack the tags named with a protein.
What was measured:
Test in all cases: cryo-EM structure; Pd-CI purified whole from P. denitrificans membranes in DDM (His-Trap, size exclusion), reconstituted into MSP2N2 phospholipid nanodiscs with ubiquinone-10; 2.3 Å consensus map, 2.5 Å focussed map of ND4-ND5; both purified
[1] = biological target: T1, Pd-NDUFS1 (Nqo3), core subunit of P. denitrificans complex I (Paracoccus denitrificans) (UniProt P29915)
T1 sequence: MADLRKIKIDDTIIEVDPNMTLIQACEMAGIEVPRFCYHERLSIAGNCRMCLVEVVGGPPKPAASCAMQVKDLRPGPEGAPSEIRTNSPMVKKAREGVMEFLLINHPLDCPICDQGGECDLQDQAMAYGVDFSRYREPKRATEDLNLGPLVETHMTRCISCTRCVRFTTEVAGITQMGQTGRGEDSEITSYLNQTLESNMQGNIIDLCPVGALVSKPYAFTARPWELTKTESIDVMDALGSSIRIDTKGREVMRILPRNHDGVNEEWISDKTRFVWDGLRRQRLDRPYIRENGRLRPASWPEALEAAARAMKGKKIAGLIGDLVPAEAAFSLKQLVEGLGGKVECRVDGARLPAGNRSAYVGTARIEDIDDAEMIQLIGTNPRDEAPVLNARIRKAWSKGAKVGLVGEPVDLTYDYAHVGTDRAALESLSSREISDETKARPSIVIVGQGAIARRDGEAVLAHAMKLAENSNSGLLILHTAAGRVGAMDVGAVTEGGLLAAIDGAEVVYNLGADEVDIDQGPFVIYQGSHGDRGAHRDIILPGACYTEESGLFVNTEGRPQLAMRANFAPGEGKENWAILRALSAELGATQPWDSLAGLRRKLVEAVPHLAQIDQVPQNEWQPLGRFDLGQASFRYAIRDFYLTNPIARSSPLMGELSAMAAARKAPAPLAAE

Protein sequences, listed by entry. Tags and fused reporters are not part of them. Lines headed by an entry give the natural chain unless they say otherwise; changes in a name come on top.
UniProt A1B5L6: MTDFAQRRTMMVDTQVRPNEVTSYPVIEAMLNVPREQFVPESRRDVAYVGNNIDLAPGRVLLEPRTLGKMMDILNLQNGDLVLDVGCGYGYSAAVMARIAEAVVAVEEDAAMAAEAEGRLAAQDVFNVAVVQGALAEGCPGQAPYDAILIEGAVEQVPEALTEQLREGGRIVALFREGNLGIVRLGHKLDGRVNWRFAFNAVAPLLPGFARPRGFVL

[2] = biological target: T2, Pd-NDUFS2 (Nqo4), core subunit of P. denitrificans complex I (Paracoccus denitrificans) (UniProt P29916)
T2 sequence (chain, dimethyl-arginine at position 65): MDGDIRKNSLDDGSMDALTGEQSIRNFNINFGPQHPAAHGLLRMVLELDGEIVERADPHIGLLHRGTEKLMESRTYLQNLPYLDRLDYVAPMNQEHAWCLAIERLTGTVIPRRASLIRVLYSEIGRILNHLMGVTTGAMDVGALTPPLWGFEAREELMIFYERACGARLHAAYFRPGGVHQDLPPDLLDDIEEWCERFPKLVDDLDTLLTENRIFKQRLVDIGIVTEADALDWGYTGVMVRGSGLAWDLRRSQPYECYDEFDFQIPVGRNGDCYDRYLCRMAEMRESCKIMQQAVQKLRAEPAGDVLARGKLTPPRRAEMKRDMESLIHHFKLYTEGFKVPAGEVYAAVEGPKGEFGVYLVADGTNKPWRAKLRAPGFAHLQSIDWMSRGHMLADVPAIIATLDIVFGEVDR

[3] = biological target: T3, Pd-NDUFS3 (Nqo5), core subunit of P. denitrificans complex I, His6-tagged (Paracoccus denitrificans) (UniProt P29917)
T3 sequence: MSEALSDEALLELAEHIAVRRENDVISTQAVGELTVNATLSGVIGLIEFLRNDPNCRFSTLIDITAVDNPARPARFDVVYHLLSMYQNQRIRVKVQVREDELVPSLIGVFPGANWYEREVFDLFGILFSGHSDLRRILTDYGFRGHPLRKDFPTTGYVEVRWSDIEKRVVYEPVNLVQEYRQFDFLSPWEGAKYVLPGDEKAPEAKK

[4] = biological target: T4, Pd-ND3 (Nqo7), core subunit of P. denitrificans complex I (Paracoccus denitrificans) (UniProt P29919)
T4 sequence (chain, formyl-Met at the N-terminus (modelled from additional density)): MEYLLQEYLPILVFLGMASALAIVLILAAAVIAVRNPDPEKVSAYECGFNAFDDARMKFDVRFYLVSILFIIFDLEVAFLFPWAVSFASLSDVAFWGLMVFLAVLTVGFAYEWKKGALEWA

[5] = biological target: T5, Pd-NDUFV2 (Nqo2), core subunit of P. denitrificans complex I (Paracoccus denitrificans) (UniProt P29914)
T5 sequence: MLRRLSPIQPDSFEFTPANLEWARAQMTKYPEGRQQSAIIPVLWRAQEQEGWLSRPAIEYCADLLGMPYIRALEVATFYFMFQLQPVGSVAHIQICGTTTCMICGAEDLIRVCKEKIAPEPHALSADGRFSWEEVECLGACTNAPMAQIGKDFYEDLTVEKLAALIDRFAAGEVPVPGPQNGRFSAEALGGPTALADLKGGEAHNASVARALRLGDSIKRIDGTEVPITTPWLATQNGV

[6] = biological target: T6, Pd-NDUFV1 (Nqo1), core subunit of P. denitrificans complex I (Paracoccus denitrificans) (UniProt P29913)
T6 sequence: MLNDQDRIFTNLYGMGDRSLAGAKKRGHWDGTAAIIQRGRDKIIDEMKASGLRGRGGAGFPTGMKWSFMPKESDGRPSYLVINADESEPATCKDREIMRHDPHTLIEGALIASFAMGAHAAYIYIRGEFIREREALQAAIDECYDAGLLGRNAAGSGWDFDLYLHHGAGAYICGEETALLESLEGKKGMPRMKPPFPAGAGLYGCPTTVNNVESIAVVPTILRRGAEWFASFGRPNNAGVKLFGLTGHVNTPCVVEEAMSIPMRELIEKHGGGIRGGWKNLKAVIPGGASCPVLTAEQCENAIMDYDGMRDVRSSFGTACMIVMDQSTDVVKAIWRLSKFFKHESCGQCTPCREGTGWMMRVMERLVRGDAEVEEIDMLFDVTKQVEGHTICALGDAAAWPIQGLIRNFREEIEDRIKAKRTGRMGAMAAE

Row | Substance | binding [1] | binding [2] | binding [3] | binding [4] | binding [5] | binding [6]
1 | Pd-NDUFS6, supernumerary subunit of P. denitrificans complex I (Paracoccus denitrificans) | binds |  |  |  |  | 
2 | CI-PIMT, protein L-isoaspartyl-O-methyltransferase subunit of P. denitrificans complex I (from UniProt A1B5L6) |  | binds | binds | binds |  | 
3 | Pd-NDUFS4, supernumerary subunit of P. denitrificans complex I (Paracoccus denitrificans) | binds |  | binds |  | binds | binds

Source: paper PMC11522691, “Structure of the turnover-ready state of an ancestral respiratory complex I” (Nature Communications, 2024)
